Positions count from the first letter of the chain named. No constants are given. Whether binding was seen depends on the method and setting. In cells and extracts the contact can be indirect. Some results given as binding are weak or reduced against the parent protein; the word gives no strength. Tags and fused reporters may be left off the sequences shown.
Key:
Assay in all cases: co-IP; IP of TSHZ3-HA (wild-type or mutant) with anti-HA beads; Western blot for SOX9-Flag or MYOCD-Flag and for TSHZ3-HA in the IP eluate; densitometric ratio of the Flag protein to TSHZ3-HA; four or three independent experiments
[1] = biological target: T1, TSHZ3-HA Ser58Gly mutant (human) (UniProt Q63HK5)
T1 sequence: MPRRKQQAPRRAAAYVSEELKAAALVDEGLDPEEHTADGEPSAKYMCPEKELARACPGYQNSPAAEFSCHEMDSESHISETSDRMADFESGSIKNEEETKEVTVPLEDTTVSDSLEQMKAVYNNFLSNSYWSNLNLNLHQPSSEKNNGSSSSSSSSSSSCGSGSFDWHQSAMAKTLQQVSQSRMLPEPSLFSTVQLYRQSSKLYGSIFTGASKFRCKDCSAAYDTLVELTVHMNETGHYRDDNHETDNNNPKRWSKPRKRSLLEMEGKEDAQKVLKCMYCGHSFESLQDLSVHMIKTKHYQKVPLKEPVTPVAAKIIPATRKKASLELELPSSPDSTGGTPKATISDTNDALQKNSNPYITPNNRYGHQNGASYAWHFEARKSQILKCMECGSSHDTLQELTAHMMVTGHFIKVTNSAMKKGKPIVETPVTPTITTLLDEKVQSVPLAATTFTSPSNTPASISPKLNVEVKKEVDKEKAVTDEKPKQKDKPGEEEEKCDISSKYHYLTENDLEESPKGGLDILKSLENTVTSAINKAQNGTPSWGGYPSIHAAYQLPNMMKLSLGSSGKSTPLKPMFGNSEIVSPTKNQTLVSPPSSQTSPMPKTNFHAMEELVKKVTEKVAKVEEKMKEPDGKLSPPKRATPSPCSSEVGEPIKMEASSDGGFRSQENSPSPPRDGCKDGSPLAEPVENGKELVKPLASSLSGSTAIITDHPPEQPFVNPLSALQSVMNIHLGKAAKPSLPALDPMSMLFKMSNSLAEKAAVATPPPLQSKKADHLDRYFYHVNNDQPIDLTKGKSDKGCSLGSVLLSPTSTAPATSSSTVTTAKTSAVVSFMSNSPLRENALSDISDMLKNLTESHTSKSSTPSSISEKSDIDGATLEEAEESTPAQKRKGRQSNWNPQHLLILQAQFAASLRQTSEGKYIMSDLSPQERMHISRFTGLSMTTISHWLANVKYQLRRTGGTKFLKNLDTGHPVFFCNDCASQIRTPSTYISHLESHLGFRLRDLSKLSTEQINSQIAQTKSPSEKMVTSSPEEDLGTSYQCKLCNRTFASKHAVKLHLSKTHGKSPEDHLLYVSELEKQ

Amino acid sequences for entries named in this document (tags omitted).
UniProt P48436: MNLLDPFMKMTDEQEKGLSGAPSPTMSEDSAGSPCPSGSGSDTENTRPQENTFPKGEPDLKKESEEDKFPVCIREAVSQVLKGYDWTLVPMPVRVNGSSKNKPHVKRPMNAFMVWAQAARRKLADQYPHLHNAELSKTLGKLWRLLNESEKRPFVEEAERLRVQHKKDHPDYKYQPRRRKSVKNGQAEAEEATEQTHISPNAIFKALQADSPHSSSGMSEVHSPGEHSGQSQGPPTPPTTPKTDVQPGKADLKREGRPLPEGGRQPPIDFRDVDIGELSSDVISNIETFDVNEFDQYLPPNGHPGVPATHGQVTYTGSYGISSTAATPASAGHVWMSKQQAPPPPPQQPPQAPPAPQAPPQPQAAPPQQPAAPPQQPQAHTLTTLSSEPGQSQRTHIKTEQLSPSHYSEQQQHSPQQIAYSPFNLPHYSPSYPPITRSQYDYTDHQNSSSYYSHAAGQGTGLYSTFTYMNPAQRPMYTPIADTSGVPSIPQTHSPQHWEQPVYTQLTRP

[2] = biological target: T2, TSHZ3-HA wild-type (teashirt zinc finger homeobox 3) (human) (UniProt Q63HK5)
T2 sequence: T1 sequence with G58S

[3] = biological target: T3, TSHZ3-HA Pro63Leu mutant (human) (UniProt Q63HK5)
T3 sequence: T1 sequence with G58S, P63L

[4] = biological target: T4, TSHZ3-HA Ala65Thr mutant (human) (UniProt Q63HK5)
T4 sequence: T1 sequence with G58S, A65T

Measured: binding

SOX9-Flag (SRY-box transcription factor 9) (from UniProt P48436 1-509)
binds: [1] | [2]

B1: MYOCD-Flag (myocardin) (protein, UniProt Q8IZQ8 1-938)
chain: MTLLGSEHSLLIRSKFRSVLQLRLQQRRTQEQLANQGIIPPLKRPAEFHEQRKHLDSDKAKNSLKRKARNRCNSADLVNMHILQASTAERSIPTAQMKLKRARLADDLNEKIALRPGPLELVEKNILPVDSAVKEAIKGNQVSFSKSTDAFAFEEDSSSDGLSPDQTRSEDPQNSAGSPPDAKASDTPSTGSLGTNQDLASGSENDRNDSASQPSHQSDAGKQGLGPPSTPIAVHAAVKSKSLGDSKNRHKKPKDPKPKVKKLKYHQYIPPDQKAEKSPPPMDSAYARLLQQQQLFLQLQILSQQQQQQQHRFSYLGMHQAQLKEPNEQMVRNPNSSSTPLSNTPLSPVKNSFSGQTGVSSFKPGPLPPNLDDLKVSELRQQLRIRGLPVSGTKTALMDRLRPFQDCSGNPVPNFGDITTVTFPVTPNTLPNYQSSSSTSALSNGFYHFGSTSSSPPISPASSDLSVAGSLPDTFNDASPSFGLHPSPVHVCTEESLMSSLNGGSVPSELDGLDSEKDKMLVEKQKVINELTWKLQQEQRQVEELRMQLQKQKRNNCSEKKPLPFLAASIKQEEAVSSCPFASQVPVKRQSSSSECHPPACEAAQLQPLGNAHCVESSDQTNVLSSTFLSPQCSPQHSPLGAVKSPQHISLPPSPNNPHFLPSSSGAQGEGHRVSSPISSQVCTAQMAGLHSSDKVGPKFSIPSPTFSKSSSAISEVTQPPSYEDAVKQQMTRSQQMDELLDVLIESGEMPADAREDHSCLQKVPKIPRSSRSPTAVLTKPSASFEQASSGSQIPFDPYATDSDEHLEVLLNSQSPLGKMSDVTLLKIGSEEPHFDGIMDGFSGKAAEDLFNAHEILPGPLSPMQTQFSPSSVDSNGLQLSFTESPWETMEWLDLTPPNSTPGFSALTTSSPSIFNIDFLDVTDLNLNSSMDLHLQQW
binds: all assays above

From PMC11711546 (2024)
